System: type 1 diabetes (T1D)
Assay: Example 3, 6-month open label study: hypoglycemic events by unblinded CGM
Type: in vivo, human
Source text: Subcutaneous (SC) insulin is non-physiologic, since pancreatic insulin goes first to the liver. The present study was designed to determine whether delivery of Hepatic Directed Vesicles (HDV) admixed with lispro/HUMALOG® (HDV-L) decreases hypoglycemia in well controlled patients on multiple daily injections (MDI) with type 1 diabetes (T1D) using unblinded Dexcom G6 continuous glucose monitoring (CGM).
This study was a 6-month (mo) open label study of prandial insulin (lispro, 3 mo, then HDV-L, 3 mo) with basal insulin degludec (TRESIBA®) and unblinded continuous glucose monitoring (CGM) in T1D with baseline A1C 6.5-8.5%. Insulin dosing, hypoglycemia, and daily glucose control were among the monitored parameters.
In this study the target fasting blood glucose was 80-100 mg/dL. At 3 mo subjects were randomized to −10% or −40% basal dose to encourage titration with HDV-L. Physicians titrated basal insulin weekly. A hypoglycemic event was defined as ≥15 min of CGM≤54 mg/dL.

Substance: insulin lispro
- hypoglycemic events per week (EPW) (24 hr, lispro at 3 mo, HDV-L at end of study, event ≥15 min of CGM≤54 mg/dL, baseline 1.11): 0.99 EPW
- decrease in hypoglycemic events per week from baseline (at 3 mo (lispro optimization)): 11%
- hypoglycemic events per week, Daytime (DT) (lispro at 3 mo, HDV-L at end of study, baseline 1.04): 0.93 EPW
- hypoglycemic events per week, Nighttime (NT) (lispro at 3 mo, HDV-L at end of study, baseline 1.39): 1.10 EPW

From patent US10918700B2, “Lipid-based nanoparticles and use of same in optimized insulin dosing regimens” (SDG, Inc., priority 2019, dated 2021)
